Laboratory results reported in PubChem BioAssay AID1794844 (National Center for Advancing Translational Sciences (NCATS), 2023).
Fewer than 10 of roughly 2,800 compounds were called active. Inconclusive results (about 7%) are left out. Calls come from the whole dose curve; as a rule, active = well fitted inhibition curve with a large enough effect; inconclusive = small, poorly fitted or top-dose-only effect; inactive = no such curve, though single readings can be large or run the other way. This is one part of the list.

The chains behind the UniProt entries cited, without tags or fusion partners. Where a name states a change or a piece, a line headed by the entry shows the natural chain unless it says otherwise.
UniProt C7C422: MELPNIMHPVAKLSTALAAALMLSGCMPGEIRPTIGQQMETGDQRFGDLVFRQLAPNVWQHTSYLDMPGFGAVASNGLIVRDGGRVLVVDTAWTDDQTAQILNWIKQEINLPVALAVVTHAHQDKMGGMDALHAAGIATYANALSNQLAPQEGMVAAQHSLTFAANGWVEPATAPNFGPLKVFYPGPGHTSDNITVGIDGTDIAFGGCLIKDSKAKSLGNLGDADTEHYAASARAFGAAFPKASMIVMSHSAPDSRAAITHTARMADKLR

What follows are compounds tested against Metallo-beta-lactamase type 2 (Klebsiella pneumoniae) (UniProt C7C422) (assay: qHTS to identify inhibitors of the New Delhi Metallo-beta-lactamase (NDM): Nitrocefin screen against the machine-based learning selections.). Settings: NDM-1 enzyme, nitrocefin hydrolysis, absorbance 485 nm; activity, negative = inhibition: at the top concentration.
Method in brief: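 NDM-1 (2 nM final) in 50 mM HEPES pH 7.0, 1 uM Zn2SO4, 0.01% Tween20 was preincubated with compounds for >30 min. Nitrocefin (16.7 uM final) was read at 485 nm after 15 min, and meropenem (50 uM final) at 300 nm after 30 min.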
Note: % of control where 0% means no effect.

activity, negative = inhibition, inactive:
Cc1ncc2n1C(=O)N(C1CCN(Cc3ccsc3)CC1)C2 5.15% [at 57.5 µM]
COc1ccc(-c2nc3c(c(=O)[nH]2)CCN(C(=O)Nc2ccc4c(c2)CCC4)C3)cc1 1.8%
CN1c2cc(C(=O)NCc3cccs3)ccc2C(=O)N2CCCCC21 (configuration not stated) 0.854%
COC(=O)[C@@H]1Cc2c([nH]c3ccccc23)[C@@H]2C[C@@H](NCCNC(C)=O)C[C@@H](c3cccc(Cl)c3)N12 -8.34%
Cc1cc(C)c(S(=O)(=O)N2CCCC(Cn3cc(CO)nn3)C2)c(C)c1 (configuration not stated) -3.86%
CC(c1cccc(-c2nc3c(cc2C(N)=O)CCC3)c1)N1CCCC1 (configuration not stated) -6.21%
COC(=O)[C@H](NC(=O)[C@@H]1[C@@H](NC(=O)Nc2cccc(SC)c2)CCN1C(=O)C=C(C)C)C(C)C -5.21%
O=C(CCn1nnc(-c2ccccc2)n1)N1CCCC2(CCNCC2)CC1 -7.4%
CC(=O)N1CCN(C(=O)c2cc(CC(C)C)[nH]c(=O)n2)CC(O)C1 (configuration not stated) -12.2%
COc1ccc(CN2C(=O)[C@@H]3C[C@@H](O)CN3C3(CN(C(C)C)C3)C2=O)cc1 -6.04% [at 57.5 µM]
Cc1cnc(C(=O)NC2CC(c3nnc(CO)n3C3CC3)C2)[nH]1 (configuration not stated) 4.16%
Cn1ccc(NC(=O)c2cnc3c(c2)N([S+](=O)([O-])c2cccnc2)CCC3)n1 -2.93% [at 57.5 µM]
O=C(O)CCC(=O)N1Cc2[nH]cnc2C[C@H]1C(=O)NC1CCCCC1 -12.9% [at 57.5 µM]
O=C(c1ccccc1)N1CCNc2cnc(Nc3cccc(F)c3)nc2C1 -1.91% [at 57.5 µM]
COc1ccc(-n2nc(C)c([C@@H]3C=C[C@@H](NC(=S)NCC(C)C)C3)c2C)cc1 262% [at 57.5 µM]
CCOCCN1C(=O)COC[C@@H]1[C@H](O)c1ccc(NC(C)=O)cc1 2.36% [at 57.5 µM]
O=C(Nc1ccc([C@H]2OCC(=O)N(C3CCOCC3)[C@@H]2CO)cc1)c1ccc(C(F)(F)F)cc1 2.8%
CCOc1cc(CN(C)C(=O)CC2C(=O)NCCN2Cc2ccccc2)ccc1OC (configuration not stated) -9.59%
CSCC(=O)N1C[C@@H](NC(=O)Nc2ccc(F)cc2F)C[C@H]1C(=O)N[C@H](Cc1ccccc1)C(N)=O -0.0589%
c1cncc(COc2cc3c(cn2)NCCN(Cc2ccc4[nH]ccc4c2)C3)c1 3.77% [at 57.5 µM]
CC(C)(C)c1ccc(C(=O)N2CCCC(O)(CN3CCCC3)C2)cc1 (configuration not stated) 2.22%
Nc1ncc(-c2ccc(-c3cc(NC4CCCC4)nc4[nH]ccc34)cc2)[nH]1 -0.586%
COc1ccc(C(=O)N2CCn3c(nn(-c4ccc([N+](=O)[O-])cc4)c3=O)C2)cc1 2.85%
CCC(=O)N1CCC(Cc2nc(-c3ccccc3)n[nH]2)CC1 -6.53%
NS(=O)(=O)CCCC(=O)N1CCC(Cc2cccc(C(=O)O)c2)C1 (configuration not stated) -2.83%
O=C(Nc1ccc(Oc2ccccc2)cc1)O[C@@H]1CO[C@H]2[C@@H]1OC[C@@H]2NS(=O)(=O)c1ccc(Cl)cc1 2.65%
COc1cccc(CN2CCNc3cc(Nc4cccnc4)ncc3C2)c1 8.42% [at 57.5 µM]
N#Cc1cccc(NC(=O)N2C[C@@H]3C[C@H](C2)c2ccc(-c4ccc(OC(F)(F)F)cc4)c(=O)n2C3)c1 6.07%
CN1[C@@H](CCC(=O)N2CCOCC2)CNC(=O)[C@@H]2[C@H]1CCN2Cc1cccs1 -1.64% [at 57.5 µM]
Cc1nn(-c2ccccn2)c(C)c1[C@@H]1C=C[C@@H](NC(=O)NC(C)C)C1 -1.77% [at 57.5 µM]
CN1C[C@@H](NC(=O)C2CCCCC2)C[C@H]1c1nc(-c2ccc3c(c2)OCO3)no1 -2.15% [at 57.5 µM]
COCCN1CCN(C[C@@H]2C=C(C)[C@H](Cc3nnc(-c4cccnc4)o3)C[C@H]2C(C)C)CC1 -10.3%
COc1ccc(C(=O)N2C[C@@H]3OCC(=O)N(Cc4nccn4C)[C@@H]3C2)cc1 -1.41% [at 57.5 µM]
CNS(=O)(=O)c1ccc(CN2CC3(CCNCC3)CC2C(=O)O)cc1 (configuration not stated) -4.04%
O=C1Nc2ccccc2CC12CCN(CC1CC1)CC2 -4.6% [at 57.5 µM]
NCCn1cc(C(=O)NCC(O)c2ccccc2C(F)(F)F)nn1 (configuration not stated) 2.02%
COc1ccccc1-c1ccc2ncc(Nc3cccc(N[S+](C)(=O)[O-])c3)n2n1 -17.2% [at 57.5 µM]
CC(=O)Nc1ccc(S(=O)(=O)N[C@H]2CO[C@H]3[C@@H]2OC[C@@H]3Nc2nccc(-c3cccs3)n2)cc1 -0.807%
NS(=O)(=O)c1ccsc1C(=O)N1CCCC2(CCNCC2)CC1 -9.98%
COCCN1CCCC(c2[nH]ccc2C(=O)NCCc2nc3ccccc3[nH]2)C1 (configuration not stated) 7.47%
NC(=O)c1cccc(-c2cc(-c3ccncc3)c3cncn3c2)c1 -5.36% [at 57.5 µM]
COc1ccc(OC)c(CNC(=O)Cc2cccn2-c2ccc(C)cc2)c1 -4.62%
O=C(NC1CCCc2c1[nH]c1ccc(F)cc21)c1ccncc1 (configuration not stated) 6.73%
C=CCNC(=O)N1CCC(O)(c2csc(CN3CCc4ccccc4C3)n2)CC1 -1.49% [at 57.5 µM]
CN1CCN(Cc2nc(C3(O)CCN(C(=O)CC(C)(C)C)CC3)cs2)CC1 -0.771% [at 57.5 µM]
Cc1oc(C(O)c2cccc(O)c2)nc1C(=O)Nc1ccc2[nH]c(=O)oc2c1 (configuration not stated) 364% [at 57.5 µM]
CCc1nc2c(c(-c3ccc(Cl)cc3)n1)CCN(Cc1ccc(F)cc1)CC2 1.11%
CS(=O)(=O)c1ccc(CN2C[C@@H]3C[C@H]2C(=O)N(Cc2ccc(OC(F)(F)F)cc2)c2ccccc2O3)cc1 -2.68%
Oc1ccccc1CNC1(Cc2cc(-c3ccccn3)on2)COC1 -19.9% [at 57.5 µM]
O[C@@H]1C[C@@H](c2nc(Cc3ccccc3)no2)N(Cc2cc3ccccc3o2)C1 0.0666% [at 57.5 µM]
O=C(NC[C@H]1Cn2c(-c3ccccc3)cnc2CO1)C1CCOCC1 8.62% [at 57.5 µM]
O=C1N[C@@H]2CCN(S(=O)(=O)c3cccc(F)c3)[C@@H]2C(=O)N1c1ccc(F)cc1 -1.48% [at 57.5 µM]
O=C(COc1ccccc1)N1CCNc2cnc(Nc3cccc(F)c3)nc2C1 3.79% [at 57.5 µM]
C#CCNC(=O)[C@@H]1Cc2cn(Cc3cc(C)on3)c3cccc(c23)[C@H](CC(C)C)N1 0.317% [at 57.5 µM]
O=C(Nc1ccccc1)O[C@@H]1CO[C@H]2[C@@H]1OC[C@@H]2NC(=O)c1ccc(C(F)(F)F)cc1 -7.3%
CC(C)CNC(=O)c1ccnc(-c2nnc3ccc(Nc4ccccc4)nn23)c1 3.28% [at 57.5 µM]
CC(=O)Nc1ccc(C(O)[C@H]2COCC(=O)N2Cc2ccccc2F)cc1 (some centres not stated) 1.36% [at 57.5 µM]
Cc1ccc(C2(O)CCN(CC(c3ccccc3)c3ccccc3)CC2)nc1 47.5%
O=C(NC1CCCCC1)[C@H]1O[C@H](CCN2CCN(Cc3ccccc3)CC2)CC[C@@H]1O -3.05% [at 57.5 µM]
Cn1cccc1C(=O)N1CC[C@H](CO)[C@H](NC(=O)C2CC2)C1 2.72%
CN1[C@H](C(=O)O)C[C@H](C(=O)NCC(C)(C)CO)[C@@H]1c1cccc(F)c1F -13.8%
Cc1cc(C)n(Cc2cccc(C(=O)N3CCC4(CC3)[C@H](O)C[C@@H]4O)c2)n1 -0.0191%
CC1(C(=O)NCCCn2ccnc2)COCc2cnc(Nc3ccccc3)nc21 (configuration not stated) 1.07% [at 57.5 µM]
COCc1ccc(C(=O)N[C@@H]2COCC[C@@H]2OCc2c(C)noc2C)o1 -0.0925%
COc1ccc(CN2CCNc3cnc(Nc4ccccc4)cc3C2)cn1 6.19% [at 57.5 µM]
O=C1NCCOCCN(C(=O)NCCc2ccccc2)[C@@H]2CCCC[C@H]12 16.9%
Cc1ccc(-c2ccc3nnc(CNC(=O)Cc4cccc(F)c4)n3n2)cc1 1.2%
CS(=O)(=O)NC1CCN(c2nc(-c3cccnc3)nc3c2CNC3)CC1 -10.4%
CNC(=O)c1cccc(-c2cnc(Nc3ccccc3)c3c2CCO3)c1 -9.22% [at 57.5 µM]
Cc1ccc(S(=O)(=O)N2CCCC(Cn3c(C)nc4cccnc43)C2)c(C)c1 (configuration not stated) -2.96%
NC(=O)c1cccc(-c2ccc3c(n2)CN(Cc2ccc(F)cc2)C(=O)CO3)c1 6.52% [at 57.5 µM]
C[C@H]1[C@@H]2[C@@H](O)C([C@H](C)C(=O)N(C)CCC#N)CC[C@@]2(C)CC[C@@H]1NS(C)(=O)=O (some centres not stated) -7.25% [at 57.5 µM]
Oc1ccccc1CN1CCNc2cc(-c3ccccc3)ncc2C1 13.3% [at 57.5 µM]
Cc1cc(C)c(CNC(=O)c2nc(-c3ccccc3)cc3[nH]ccc23)c(=O)[nH]1 46.5% [at 57.5 µM]
COc1cc(C(=O)N2C[C@@H](C)[C@@](C)(O)C2)ccn1 7.5%
COCC(=O)N1CC[C@@H](CC(=O)O)[C@@H](CC2=NCCc3cc(OC)ccc32)C1 -8.79% [at 57.5 µM]
O=C(CCc1cccnc1)N1CCCC(CCc2cccc(F)c2)C1 (configuration not stated) -11.5%
NC(=O)CN1CCC(c2nc(-c3ccc4nc[nH]c4c3)no2)CC1 -1.91%
O=C(NCc1cccc(Cl)c1)c1cc2c(s1)CCN(C(=O)c1ccccc1)C2 -5.13%
Cc1ccsc1[C@@H]1CCN(Cc2cccn2-c2cccnc2)C[C@H]1O -2.87%
CCOC(=O)C1=C(C)N=C2SC=C(CC(=O)N3CCCCC3)N2C1c1cccc(OC)c1 (configuration not stated) -9.57%
CC(C)C[C@@H](NC(=O)C1=C[C@@H](NC(=O)c2ccco2)[C@@H](O)[C@H](O)C1)C(N)=O 13.3% [at 57.5 µM]
CC(C)NC(=O)[C@@H]1C[C@H](N)CN1C(=O)c1ccc(-n2cnnn2)cc1 11.7%
COc1ccc(S(=O)(=O)N2C[C@@H](F)[C@@H](OCc3nc4ccccc4o3)C2)cc1 -4.04% [at 57.5 µM]
N#Cc1cccc(NC(=O)O[C@@H]2CO[C@H]3[C@@H]2OC[C@@H]3n2nnnc2-c2ccc(-c3ccccc3)cc2)c1 -3.25%
COc1ccc(-c2noc([C@@H]3Cc4nc[nH]c4CN3Cc3ccc(NC(C)=O)cc3)n2)cc1 -3.71%
N#Cc1cccc(C(=O)Nc2ccc([C@H]3OCC(=O)N(C4CCOCC4)[C@@H]3CO)cc2)c1 2.18%
Oc1ccccc1CN1CCNc2cc(Nc3cccnc3)ncc2C1 4.53% [at 57.5 µM]
COc1ccccc1-c1ccc2ncc(Nc3cccc(O)c3)n2n1 -12.3% [at 57.5 µM]
O=C(Cc1cccc(F)c1)NCc1nnc2ccc(-c3ccc(Cl)cc3)nn12 -3.28%
CC(C)NC(=O)N[C@H]1CCN2C(=O)c3cc(-c4ccccc4)ccc3NC(=O)[C@H]12 -11.1% [at 57.5 µM]
CCO[C@H]1CN(C(=O)CCCc2nc(-c3ccccc3OC)no2)C[C@@H]1O 0.258%

Structural class, those above with a tert-butyl group (2)
activity, negative = inhibition, inactive:
CC(C)(C)c1ccc(C(=O)N2CCCC(O)(CN3CCCC3)C2)cc1 (configuration not stated) 2.22%
CN1CCN(Cc2nc(C3(O)CCN(C(=O)CC(C)(C)C)CC3)cs2)CC1 -0.771% [at 57.5 µM]

Compounds listed so far containing two or more sulfur atoms, in the order listed:
activity, negative = inhibition, inactive:
CC(=O)Nc1ccc(S(=O)(=O)N[C@H]2CO[C@H]3[C@@H]2OC[C@@H]3Nc2nccc(-c3cccs3)n2)cc1 -0.807%
NS(=O)(=O)c1ccsc1C(=O)N1CCCC2(CCNCC2)CC1 -9.98%
